The other results are listed elsewhere or left out. Single values are uncertain, as repeats are few or missing.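 The apoptosis fraction was the count of cleaved-PARP antibody-stained nuclei relative to all DNA-stained nuclei, imaged in 1,536-well plates. Screening doses were set so most cells survived, and baseline and induced cleaved-PARP levels vary greatly across cell lines.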
Key:
Experiment in all cases: cleaved PARP positive nuclei fraction relative to DMSO control; melanoma cells; higher = more apoptosis
Settings in all cases: library dose: low library concentration; 72 h
MZ2-MEL = test system: MZ2-MEL
MeWo = test system: MeWo
RPMI7951 = test system: RPMI7951
RVH-421 = test system: RVH-421
SkMel28 = test system: SkMel28
SkMel30 = test system: SkMel30
SkMel5 = test system: SkMel5
UACC257 = test system: UACC257
UACC62 = test system: UACC62
WM115 = test system: WM115
WM1716 = test system: WM1716
WM1745 = test system: WM1745
WM3526 = test system: WM3526
WM3619 = test system: WM3619
WM451Lu = test system: WM451Lu

## CC1(C)NC(=O)N(c2ccc([N+](=O)[O-])c(C(F)(F)F)c2)C1=O [nilutamide] + CC(C)CCN1c2nc(Nc3cc(F)c(O)c(F)c3)ncc2N(C)C(=O)C1C [BID1870] (first compound 1 µM, partner dose 0.2 µM)
MZ2-MEL
  cleaved PARP positive nuclei fraction: 54.8%
MeWo
  cleaved PARP positive nuclei fraction: 56.1%
RPMI7951
  cleaved PARP positive nuclei fraction: 82.8%
RVH-421
  cleaved PARP positive nuclei fraction: 109%
SkMel28
  cleaved PARP positive nuclei fraction: 95.3%
SkMel30
  cleaved PARP positive nuclei fraction: 30%
SkMel5
  cleaved PARP positive nuclei fraction: 72.5%
UACC257
  cleaved PARP positive nuclei fraction: 43.2%
UACC62
  cleaved PARP positive nuclei fraction: 107%
WM115
  cleaved PARP positive nuclei fraction: 115%
WM1716
  cleaved PARP positive nuclei fraction: 62%
WM1745
  cleaved PARP positive nuclei fraction: 105%
WM3526
  cleaved PARP positive nuclei fraction: 31.3%
WM3619
  cleaved PARP positive nuclei fraction: 71%
WM451Lu
  cleaved PARP positive nuclei fraction: 117%

## COc1cc(Nc2ncc(F)c(Nc3ccc4c(n3)NC(=O)C(C)(C)O4)n2)cc(OC)c1OC [Tamatinib] + CCc1ccc(CCOc2ccc(CC3SC(=O)NC3=O)cc2)nc1 [pioglitazone] (first compound 0.4 µM, partner dose 2 µM)
MZ2-MEL
  cleaved PARP positive nuclei fraction: 128%
MeWo
  cleaved PARP positive nuclei fraction: 34.8%
RPMI7951
  cleaved PARP positive nuclei fraction: 229%
RVH-421
  cleaved PARP positive nuclei fraction: 36.3%
SkMel28
  cleaved PARP positive nuclei fraction: 237%
SkMel30
  cleaved PARP positive nuclei fraction: 24.6%
SkMel5
  cleaved PARP positive nuclei fraction: 66.8%
UACC257
  cleaved PARP positive nuclei fraction: 122%
UACC62
  cleaved PARP positive nuclei fraction: 351%
WM115
  cleaved PARP positive nuclei fraction: 158%
WM1716
  cleaved PARP positive nuclei fraction: 58.2%
WM1745
  cleaved PARP positive nuclei fraction: 118%
WM3526
  cleaved PARP positive nuclei fraction: 67.8%
WM3619
  cleaved PARP positive nuclei fraction: 86%
WM451Lu
  cleaved PARP positive nuclei fraction: 52.8%

## Cc1nc(Nc2ncc(C(=O)Nc3c(C)cccc3Cl)s2)cc(N2CCN(CCO)CC2)n1 [dasatanib] + CCN(CC)CCCCNc1ncc2cc(-c3cc(OC)cc(OC)c3)c(NC(=O)NC(C)(C)C)nc2n1 [PD173074] (first compound 0.004 µM, partner dose 0.1 µM)
MZ2-MEL
  cleaved PARP positive nuclei fraction: 151%
MeWo
  cleaved PARP positive nuclei fraction: 112%
RPMI7951
  cleaved PARP positive nuclei fraction: 114%
RVH-421
  cleaved PARP positive nuclei fraction: 167%
SkMel28
  cleaved PARP positive nuclei fraction: 261%
SkMel30
  cleaved PARP positive nuclei fraction: 26.2%
SkMel5
  cleaved PARP positive nuclei fraction: 31.3%
UACC257
  cleaved PARP positive nuclei fraction: 272%
UACC62
  cleaved PARP positive nuclei fraction: 91.6%
WM115
  cleaved PARP positive nuclei fraction: 206%
WM1716
  cleaved PARP positive nuclei fraction: 209%
WM1745
  cleaved PARP positive nuclei fraction: 165%
WM3526
  cleaved PARP positive nuclei fraction: 61.6%
WM3619
  cleaved PARP positive nuclei fraction: 162%
WM451Lu
  cleaved PARP positive nuclei fraction: 202%

## Cn1nnc2c(C(N)=O)ncn2c1=O [temozolomide] + Oc1cc(-c2nc(-c3ccccc3)[nH]c2-c2ccncc2)ccc1Cl [L779450] (first compound 2 µM, partner dose 0.2 µM)
MZ2-MEL
  cleaved PARP positive nuclei fraction: 74.1%
MeWo
  cleaved PARP positive nuclei fraction: 57.8%
RPMI7951
  cleaved PARP positive nuclei fraction: 171%
RVH-421
  cleaved PARP positive nuclei fraction: 243%
SkMel28
  cleaved PARP positive nuclei fraction: 109%
SkMel30
  cleaved PARP positive nuclei fraction: 369%
SkMel5
  cleaved PARP positive nuclei fraction: 53.7%
UACC257
  cleaved PARP positive nuclei fraction: 77.2%
UACC62
  cleaved PARP positive nuclei fraction: 645%
WM115
  cleaved PARP positive nuclei fraction: 171%
WM1716
  cleaved PARP positive nuclei fraction: 76.9%
WM1745
  cleaved PARP positive nuclei fraction: 94.8%
WM3526
  cleaved PARP positive nuclei fraction: 231%
WM3619
  cleaved PARP positive nuclei fraction: 74.8%
WM451Lu
  cleaved PARP positive nuclei fraction: 40.1%

## O=C(CCCCCCC(=O)Nc1ccccc1)NO [vorinostat] + Oc1nc(-c2ccc(C(F)(F)F)cc2)nc2c1CSCC2 [XAV939] (first compound 0.08 µM, partner dose 2 µM)
MZ2-MEL
  cleaved PARP positive nuclei fraction: 143%
MeWo
  cleaved PARP positive nuclei fraction: 39.7%
RPMI7951
  cleaved PARP positive nuclei fraction: 275%
RVH-421
  cleaved PARP positive nuclei fraction: 83.6%
SkMel28
  cleaved PARP positive nuclei fraction: 207%
SkMel30
  cleaved PARP positive nuclei fraction: 29.8%
SkMel5
  cleaved PARP positive nuclei fraction: 108%
UACC257
  cleaved PARP positive nuclei fraction: 130%
UACC62
  cleaved PARP positive nuclei fraction: 37.9%
WM115
  cleaved PARP positive nuclei fraction: 227%
WM1716
  cleaved PARP positive nuclei fraction: 185%
WM1745
  cleaved PARP positive nuclei fraction: 111%
WM3526
  cleaved PARP positive nuclei fraction: 69.3%
WM3619
  cleaved PARP positive nuclei fraction: 107%
WM451Lu
  cleaved PARP positive nuclei fraction: 55.6%

## C[C@]1(c2nc3c(C(N)=O)cccc3[nH]2)CCCN1 [Veliparib] + Oc1nc(-c2ccc(C(F)(F)F)cc2)nc2c1CSCC2 [XAV939] (first compound 1.4 µM, partner dose 2 µM)
MZ2-MEL
  cleaved PARP positive nuclei fraction: 102%
MeWo
  cleaved PARP positive nuclei fraction: 142%
RPMI7951
  cleaved PARP positive nuclei fraction: 118%
RVH-421
  cleaved PARP positive nuclei fraction: 81.1%
SkMel28
  cleaved PARP positive nuclei fraction: 151%
SkMel30
  cleaved PARP positive nuclei fraction: 160%
SkMel5
  cleaved PARP positive nuclei fraction: 94.8%
UACC257
  cleaved PARP positive nuclei fraction: 140%
UACC62
  cleaved PARP positive nuclei fraction: 99.8%
WM115
  cleaved PARP positive nuclei fraction: 104%
WM1716
  cleaved PARP positive nuclei fraction: 145%
WM1745
  cleaved PARP positive nuclei fraction: 129%
WM3526
  cleaved PARP positive nuclei fraction: 145%
WM3619
  cleaved PARP positive nuclei fraction: 106%
WM451Lu
  cleaved PARP positive nuclei fraction: 107%

## Cn1cncc1[C@@](N)(c1ccc(Cl)cc1)c1ccc2c(c1)c(-c1cccc(Cl)c1)cc(=O)n2C [tipifarnib] + O=c1cc(-c2cccc3c2Sc2ccccc2S3)oc(N2CCOCC2)c1 [KU55933] (first compound 0.01 µM, partner dose 1 µM)
MZ2-MEL
  cleaved PARP positive nuclei fraction: 172%
MeWo
  cleaved PARP positive nuclei fraction: 80.3%
RPMI7951
  cleaved PARP positive nuclei fraction: 95.6%
RVH-421
  cleaved PARP positive nuclei fraction: 68.2%
SkMel28
  cleaved PARP positive nuclei fraction: 180%
SkMel30
  cleaved PARP positive nuclei fraction: 41.9%
SkMel5
  cleaved PARP positive nuclei fraction: 64.4%
UACC257
  cleaved PARP positive nuclei fraction: 76%
UACC62
  cleaved PARP positive nuclei fraction: 192%
WM115
  cleaved PARP positive nuclei fraction: 201%
WM1716
  cleaved PARP positive nuclei fraction: 231%
WM1745
  cleaved PARP positive nuclei fraction: 101%
WM3526
  cleaved PARP positive nuclei fraction: 45.2%
WM3619
  cleaved PARP positive nuclei fraction: 81.9%
WM451Lu
  cleaved PARP positive nuclei fraction: 33.7%

## Nc1cccc2c1CN(C1CCC(=O)NC1=O)C2=O (stereo not given) [lenalidomide] + c1cc(-c2cnn3cc(-c4ccc(OCCN5CCCCC5)cc4)cnc23)ccn1 [Dorsomorphin] (first compound 1 µM, partner dose 0.4 µM)
MZ2-MEL
  cleaved PARP positive nuclei fraction: 36.4%
MeWo
  cleaved PARP positive nuclei fraction: 151%
RPMI7951
  cleaved PARP positive nuclei fraction: 77.8%
RVH-421
  cleaved PARP positive nuclei fraction: 48.3%
SkMel28
  cleaved PARP positive nuclei fraction: 95.4%
SkMel30
  cleaved PARP positive nuclei fraction: 39.9%
SkMel5
  cleaved PARP positive nuclei fraction: 59.7%
UACC257
  cleaved PARP positive nuclei fraction: 146%
UACC62
  cleaved PARP positive nuclei fraction: 180%
WM115
  cleaved PARP positive nuclei fraction: 73.9%
WM1716
  cleaved PARP positive nuclei fraction: 47.6%
WM1745
  cleaved PARP positive nuclei fraction: 105%
WM3526
  cleaved PARP positive nuclei fraction: 120%
WM3619
  cleaved PARP positive nuclei fraction: 70.7%
WM451Lu
  cleaved PARP positive nuclei fraction: 55.8%

## C[C@@H]1CCN(C(=O)CC#N)C[C@@H]1N(C)c1ncnc2[nH]ccc12 + CC(C)CCN1c2nc(Nc3cc(F)c(O)c(F)c3)ncc2N(C)C(=O)C1C [BID1870] (first compound 1 µM, partner dose 0.2 µM)
MZ2-MEL
  cleaved PARP positive nuclei fraction: 135%
MeWo
  cleaved PARP positive nuclei fraction: 105%
RPMI7951
  cleaved PARP positive nuclei fraction: 82.3%
RVH-421
  cleaved PARP positive nuclei fraction: 47.9%
SkMel28
  cleaved PARP positive nuclei fraction: 188%
SkMel30
  cleaved PARP positive nuclei fraction: 14.5%
SkMel5
  cleaved PARP positive nuclei fraction: 54.6%
UACC257
  cleaved PARP positive nuclei fraction: 127%
UACC62
  cleaved PARP positive nuclei fraction: 87.3%
WM115
  cleaved PARP positive nuclei fraction: 84.7%
WM1716
  cleaved PARP positive nuclei fraction: 68.8%
WM1745
  cleaved PARP positive nuclei fraction: 107%
WM3526
  cleaved PARP positive nuclei fraction: 36.4%
WM3619
  cleaved PARP positive nuclei fraction: 83.5%
WM451Lu
  cleaved PARP positive nuclei fraction: 30.4%

## Cn1nnc2c(C(N)=O)ncn2c1=O [temozolomide] + O=C1NC(=O)/C(=C/c2ccc(-c3ccc(F)cc3O)o2)S1 [AS252424] (first compound 2 µM, partner dose 1 µM)
MZ2-MEL
  cleaved PARP positive nuclei fraction: 102%
MeWo
  cleaved PARP positive nuclei fraction: 48.8%
RPMI7951
  cleaved PARP positive nuclei fraction: 46.5%
RVH-421
  cleaved PARP positive nuclei fraction: 39.4%
SkMel28
  cleaved PARP positive nuclei fraction: 91.1%
SkMel30
  cleaved PARP positive nuclei fraction: 110%
SkMel5
  cleaved PARP positive nuclei fraction: 34.6%
UACC257
  cleaved PARP positive nuclei fraction: 122%
UACC62
  cleaved PARP positive nuclei fraction: 138%
WM115
  cleaved PARP positive nuclei fraction: 189%
WM1716
  cleaved PARP positive nuclei fraction: 206%
WM1745
  cleaved PARP positive nuclei fraction: 89.5%
WM3526
  cleaved PARP positive nuclei fraction: 82.5%
WM3619
  cleaved PARP positive nuclei fraction: 80%
WM451Lu
  cleaved PARP positive nuclei fraction: 43.3%
